{"sequences": {"note": "Chains of the proteins cited; added tags and fusions are not shown. Lines headed by an entry give the natural chain unless they say otherwise; changes in a name come on top.", "UniProt P18054": "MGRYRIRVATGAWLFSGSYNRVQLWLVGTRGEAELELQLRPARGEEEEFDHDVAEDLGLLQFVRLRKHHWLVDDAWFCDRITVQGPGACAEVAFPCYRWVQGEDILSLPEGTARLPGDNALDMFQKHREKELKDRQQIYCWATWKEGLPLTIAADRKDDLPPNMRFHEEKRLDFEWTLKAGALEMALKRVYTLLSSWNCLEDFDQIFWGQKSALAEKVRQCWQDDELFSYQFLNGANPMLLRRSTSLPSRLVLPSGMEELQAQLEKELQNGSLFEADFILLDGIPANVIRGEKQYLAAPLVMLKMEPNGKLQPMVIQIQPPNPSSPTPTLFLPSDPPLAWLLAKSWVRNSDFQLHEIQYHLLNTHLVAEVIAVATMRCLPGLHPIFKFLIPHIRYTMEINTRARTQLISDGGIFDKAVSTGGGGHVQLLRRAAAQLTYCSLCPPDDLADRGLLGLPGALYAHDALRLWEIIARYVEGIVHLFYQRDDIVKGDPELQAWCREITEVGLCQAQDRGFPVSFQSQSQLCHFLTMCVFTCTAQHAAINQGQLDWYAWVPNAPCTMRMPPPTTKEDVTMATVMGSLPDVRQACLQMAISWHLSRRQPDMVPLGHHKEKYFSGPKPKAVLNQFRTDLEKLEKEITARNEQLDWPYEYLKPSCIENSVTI"}, "source": "PubChem BioAssay AID1671190", "about": "(National Center for Advancing Translational Sciences (NCATS), 2021)", "note": "Values joined by “and” are separate entries in the source; they are usually repeats but may differ in a detail not shown here. Equal values may be shown once. Among all 580,000 compounds or so, about 6,100 (1.1%) were called active. Inconclusive means that the source gave no clear call. Such entries were picked first, then a sample of the others. Calls follow the shape of the dose curve; as a rule, active = well fitted inhibition curve with a large enough effect; inconclusive = small, poorly fitted or top-dose-only effect, or another doubt; inactive = no such curve, though single readings can be large or run the other way. A potency beside an inconclusive call is a rough fit, not a confirmed value. Potency is read from the fitted curve at half-maximal effect.", "data": [{"biological_target": "Polyunsaturated fatty acid lipoxygenase ALOX12 (Homo sapiens) (UniProt P18054)", "assay": "Primary qHTS assay for inhibitors of human arachidonate 12S-lipoxygenase (ALOX12): Round 2", "conditions": "purified 12hLO, xylenol orange hydroperoxide absorbance; series mostly up to 108 µM", "method_in_brief": "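Purified human 12hLO at 150 nM in 25 mM Hepes, 0.01% Triton X-100, pH 7.0, preincubated 15 min at room temperature with compound. Reaction started with 40 uM arachidonic acid, 30 min at room temperature. Hydroperoxide measured by Fe-xylenol orange, 573/405 nm absorbance ratio.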", "values": [{"smiles": "O=C(OCCN1CCOCC1)C1(c2ccccc2)CCCCC1", "Potency": "inconclusive: 25.1 µM [inhibitor, single point]"}, {"smiles": "CCC(=O)Nc1ccc(Oc2ccc3c(c2)C(=O)N(c2ccc(O)cc2)C3=O)cc1", "Potency": "inactive"}, {"smiles": "Cc1ccccc1OCc1nc2ccccc2[nH]1", "Potency": "inactive"}, {"smiles": "CC(=O)Nc1ccc(-c2c(C)cc3oc(=O)cc(-c4ccccc4)c3c2C)cc1", "Potency": "inconclusive: 126 µM [inhibitor, single point]"}, {"smiles": "CCCOc1ccc(C2C(C(=O)c3ccc(C)o3)=C(O)C(=O)N2Cc2ccco2)cc1OCC", "note": "(stereo not drawn)", "Potency": "inconclusive: 4.47 µM [inhibitor, full curve, poor fit]"}, {"smiles": "Cc1cccc([C@@H]2[C@@H]3C(=O)N(Cc4ccccc4)C(=O)[C@@H]3[C@]3(C)C(=O)N(c4cccc(F)c4)C(=O)N23)c1", "Potency": "inconclusive: 112 µM [inhibitor, single point]"}, {"smiles": "CC(C)C(=O)Nc1cccc(NC(=O)CCN2C(=O)c3ccccc3S2(=O)=O)c1", "Potency": "inconclusive: 28.2 µM [inhibitor, single point]"}, {"smiles": "C=CC[n+]1c(C)csc1Nc1ccc(C)cc1", "Potency": "inconclusive: 44.7 µM [inhibitor, partial curve]"}, {"smiles": "O=C(NCc1coc(-c2cccs2)n1)c1cccc(Br)c1", "Potency": "inconclusive: 5.01 µM [inhibitor, full curve, poor fit]"}, {"smiles": "O=[N+]([O-])c1ccc(S(=O)(=O)NCCN2CCOCC2)cc1", "Potency": "inactive"}, {"smiles": "Fc1ccc(CSc2nc(-c3ccccc3)cc(C(F)(F)F)n2)cc1", "Potency": "inconclusive: 44.7 µM [inhibitor, partial curve, poor fit]"}, {"smiles": "CCOC(=O)c1cc(-c2ccccc2)sc1NC(=O)CCN1CCOCC1", "Potency": "inactive"}, {"smiles": "c1ccc2c(CNCCN3CCOCC3)cccc2c1", "Potency": "inconclusive: 28.2 µM [inhibitor, single point]"}, {"smiles": "CCC1(c2ccc(C)cc2)NC(=O)N(Cc2ncc(-c3ccccc3)o2)C1=O", "note": "(stereo not drawn)", "Potency": "inactive"}, {"smiles": "CCOC(=O)C1(Cc2ccc(Cl)cc2)CCN(Cc2ccc(OC)cc2O)CC1", "Potency": "inconclusive: 89.1 µM [inhibitor, single point]"}, {"smiles": "O=c1c2cc(C(F)(F)F)ccc2sn1-c1ccccc1", "Potency": "inactive"}, {"smiles": "CCCCCCCNC(=O)C1CC(=O)N(C)C(=Nc2ccc(OC)cc2)S1", "note": "(stereo not drawn)", "Potency": "inconclusive: 2 µM [inhibitor, full curve, poor fit]"}, {"smiles": "Cn1cc(S(=O)(=O)CC(=O)Nc2ccc(Br)cc2)c2ccccc21", "Potency": "inconclusive: 4.47 µM [inhibitor, full curve, poor fit]"}, {"smiles": "O=C1CC(c2cccc(Cl)c2)Cc2nc3nc(C(F)(F)F)nn3cc21", "note": "(stereo not drawn)", "Potency": "inconclusive: 50.1 µM [inhibitor, partial curve, poor fit]"}, {"smiles": "COC(=O)N/N=C(\\CCC(=O)O)c1cccs1", "Potency": "inconclusive: 100 µM [inhibitor, single point]"}, {"smiles": "CCC(CO)Oc1cc(NC(=O)c2cccc(C)c2)c2ncn(C(C)C)c2c1", "note": "(stereo not drawn)", "Potency": "inconclusive: 7.94 µM [inhibitor, full curve, poor fit]"}, {"smiles": "CCc1noc(-c2nc(-c3cccc(F)c3)no2)n1", "Potency": "inactive"}, {"smiles": "COC(=O)c1ccc(N2CCOCC2)c(NC(=O)c2cc3ccccc3o2)c1", "Potency": "inactive"}, {"smiles": "CCc1nn2c(NCc3ccccn3)cc(C)nc2c1-c1ccc(Cl)cc1", "Potency": "inactive"}, {"smiles": "CC(C)(C)c1ccc(C(CC(=O)O)NC(=O)Cc2ccc(Cl)cc2)cc1", "note": "(stereo not drawn)", "Potency": "inconclusive: 1.26 µM [inhibitor, full curve, poor fit] and inconclusive: 50.1 µM [inhibitor, partial curve, poor fit]"}, {"smiles": "CC(=O)c1cccc(NC(=S)NCCC2=CCCCC2)c1", "Potency": "inconclusive: 39.8 µM [inhibitor, partial curve, poor fit]"}, {"smiles": "CCNC(=O)c1c2c(nc3ccccc13)C(=O)N(C1CCCCC1)C2", "Potency": "inconclusive: 126 µM [inhibitor, partial curve, poor fit]"}, {"smiles": "COC(=O)[C@@]12CCCN1[C@H](c1ccc(-c3ccc(C(C)=O)cc3)c(OC)c1)[C@H]1C(=O)N(C)C(=O)[C@H]12", "Potency": "inconclusive: 39.8 µM [inhibitor, partial curve, poor fit]"}, {"smiles": "COc1cc(C2=NOC(C(=O)N3CCOCC3)C2)cc(OC)c1OC", "note": "(stereo not drawn)", "Potency": "inconclusive: 0.355 µM [inhibitor, full curve, poor fit]"}, {"smiles": "Cc1ccc(C)c(N2CCN(C(=O)C3CCN(c4nnc(N5CCCC5=O)s4)CC3)CC2)c1", "Potency": "inactive"}, {"smiles": "COC(=O)c1sc2nc3c(c(-c4cccs4)c2c1N)CCCC3", "Potency": "inactive"}, {"smiles": "CCc1sc(C(=O)NC)cc1Br", "Potency": "inconclusive: 112 µM [inhibitor, single point]"}, {"smiles": "Cc1ccc(C(=O)N2CCc3cc(CNC(=O)CCc4ccccc4)ccc32)cc1", "Potency": "inactive"}, {"smiles": "N#Cc1ccc(/C=C/C(=O)c2ccc3c(c2)CCC3)cc1", "Potency": "inconclusive: 79.4 µM [inhibitor, single point]"}, {"smiles": "COc1cccc(CNC(=O)CSc2nnc3c(n2)[nH]c2ccccc23)c1", "Potency": "inconclusive: 44.7 µM [inhibitor, partial curve, poor fit]"}, {"smiles": "CC1(C)Cc2cccc(OCC(=O)OCc3cc(=O)oc4ccc5ccccc5c34)c2O1", "Potency": "inactive"}, {"smiles": "Cc1cccc(NC(=O)c2ccc(OCc3c(C)noc3C)cc2)n1", "Potency": "inactive"}, {"smiles": "Cc1ccc(Cn2c(SCCC(=O)O)nc3c2c(=O)[nH]c(=O)n3C)cc1", "Potency": "inconclusive: 25.1 µM [inhibitor, partial curve, poor fit]"}, {"smiles": "Cc1ccc(C)c(NC(=O)C(OC(=O)c2ccc(NC(=O)CC#N)cc2)c2ccccc2)c1", "note": "(stereo not drawn)", "Potency": "inactive"}, {"smiles": "O=C(Nc1ccc(F)cc1)Nc1ccc2snnc2c1", "Potency": "inconclusive: 39.8 µM [inhibitor, partial curve, poor fit]"}, {"smiles": "CCN(c1ccccc1)S(=O)(=O)c1cc(C(=O)O)ccc1C", "Potency": "inconclusive: 10 µM [inhibitor, full curve, poor fit]"}, {"smiles": "COc1cccc(/C=N/N2CCN(c3ccc(Cl)cc3)CC2)c1OC", "Potency": "inactive"}, {"smiles": "O=C(NCc1cccnc1)/C(=C\\c1ccc(-c2ccc(Br)cc2)o1)S(=O)(=O)c1ccccc1", "Potency": "inactive"}, {"smiles": "O=C1NC(=O)C(=Cc2ccc(Cl)cc2Cl)S1", "Potency": "active: 39.8 µM"}, {"smiles": "COc1cccc(N2C(=O)C3CC=C(Cl)CC3C2=O)c1", "note": "(stereo not drawn)", "Potency": "inconclusive: 8.91 µM [inhibitor, full curve]"}, {"smiles": "C[C@H]1CN([C@@H](C)CO)C(=O)CCCn2cc(nn2)CO[C@@H]1CN(C)S(=O)(=O)c1ccc2c(c1)OCCCO2", "Potency": "inactive"}, {"smiles": "CCOC(=O)c1sc(NC(=O)CSc2nccc(C)n2)c(C#N)c1C", "Potency": "inactive"}, {"smiles": "O=[N+]([O-])c1ccccc1S(=O)(=O)N1CCN(CC2CC=CCC2)CC1", "note": "(stereo not drawn)", "Potency": "inconclusive: 0.631 µM [inhibitor, full curve]"}, {"smiles": "CC1=C[C@@H](CNC(=O)c2ccccc2)[C@H](C(C)C)C[C@H]1CC(=O)N1CCN(C)CC1", "Potency": "inconclusive: 7.08 µM [inhibitor, full curve]"}, {"smiles": "O=C(CN1CCN(c2ccccn2)CC1)N1c2ccccc2Sc2ccc(C(F)(F)F)cc21", "Potency": "inconclusive: 2.24 µM [inhibitor, partial curve, poor fit]"}, {"smiles": "COc1ccc(-c2nc3ccccc3s2)cc1NC(=O)COc1cccc(C)c1", "Potency": "inactive"}, {"smiles": "COc1cccc(C(O)c2nc(/C=C/c3ccccc3)cs2)c1", "note": "(stereo not drawn)", "Potency": "inconclusive: 89.1 µM [inhibitor, partial curve, poor fit]"}, {"smiles": "CCOc1cccc(C=Nc2cccc3ccccc23)c1", "Potency": "inconclusive: 56.2 µM [inhibitor, single point]"}, {"smiles": "O=C(NCc1nnc2n1CCC2)Nc1ccccc1", "Potency": "inactive"}, {"smiles": "CCOC(=O)C1=C(C)NC(C)=C(C(=O)OCC)C1C(=O)OCC(=O)NCCc1ccccc1", "Potency": "inactive"}, {"smiles": "CCOCCCNC(=S)N1CCN(Cc2ccc3c(c2)OCO3)CC1", "Potency": "inconclusive: 3.55 µM [inhibitor, full curve, poor fit]"}, {"smiles": "CN1C[C@@H]2[C@@H]3C(=O)N(C)C(=O)[C@@H]3[C@](C)(C1=O)N2C(=O)c1ccc(C(C)(C)C)cc1", "Potency": "inactive"}, {"smiles": "O=C(CSc1nc2ccccc2c(=O)n1-c1ccc(F)cc1)Nc1ccc(N2CCOCC2)cc1", "Potency": "inconclusive: 50.1 µM [inhibitor, partial curve, poor fit]"}, {"smiles": "O=C(O)CNC(=O)CNC(=O)CCn1c(-c2ccccc2)cc2ccccc21", "Potency": "inactive"}, {"smiles": "O=C(CC1C(=O)Nc2nc(SCc3ccccc3)nn21)Nc1ccccc1", "note": "(stereo not drawn)", "Potency": "inconclusive: 39.8 µM [inhibitor, partial curve, poor fit]"}, {"smiles": "CC(c1ccccc1)N1CC(C(=O)N2CCN(Cc3ccc(C#N)cc3)CC2)CC1=O", "note": "(stereo not drawn)", "Potency": "inconclusive: 112 µM [inhibitor, single point]"}, {"smiles": "COCCCN(C(=S)Nc1cc(C)cc(C)c1)C(C)c1ccncc1", "note": "(stereo not drawn)", "Potency": "inconclusive: 39.8 µM [inhibitor, full curve, poor fit]"}, {"smiles": "CCc1ccc(S(=O)(=O)Nc2cc3c(cc2N2CCOCC2)n(C)c(=O)c(=O)n3C)cc1", "Potency": "inconclusive: 141 µM [inhibitor, partial curve, poor fit]"}, {"smiles": "O=C(NC1CCN(c2cc(-c3ccc(Cl)cc3)[nH]n2)CC1)c1ccc2[nH]ccc2c1", "Potency": "inconclusive: 12.6 µM [inhibitor, full curve]"}, {"smiles": "C/C(=C\\c1ccccc1)CN1CCCC12Cc1ccccc1CNC2=O", "note": "(stereo not drawn)", "Potency": "inconclusive: 79.4 µM [inhibitor, single point]"}, {"smiles": "Cc1c(NC(=O)COC(=O)CCC(=O)c2ccc(Cl)cc2)c(=O)n(-c2ccccc2)n1C", "Potency": "inactive"}, {"smiles": "CCS(=O)(=O)N1Cc2ccccc2CC1C(=O)Nc1nc2ccccc2s1", "note": "(stereo not drawn)", "Potency": "inactive"}, {"smiles": "CCNc1ccc(C(=O)OCC(=O)N2CCCC2)cc1[N+](=O)[O-]", "Potency": "inactive"}]}]}
